Laboratory results published in PubChem BioAssay AID1347426 (Functional Genomics Laboratory (NCATS/FGL), 2020).
Among all 31,000 sequences or so, about 1,400 (4.5%) were called active.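 How the source made its calls: active means median seed-adjusted z-score above 1 or below -1; inactive means the rest.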 The list shows a part of the results.

Assay: Novel Modifiers of Survival Motor Neuron (SMN) Protein: Gene Identification via Genome-wide siRNA Screen;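 further: luminescence tracks full-length SMN protein made from the SMN2 reporter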
Details: HEK293T SMN2-luciferase reporter, siRNA knockdown, 72 h; actives lie on both sides
Procedure, shortened: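 siRNA screen, 10418 genes ×3 siRNAs; 1 pmol/well, lipid reverse transfection into HEK293T SMN2-luc reporter line. 72 h, 37 °C, 5% CO2; ONE-Glo readout. Data: neg-ctrl normalized, log10, MAD; hit = MAD >1.0 or < -1.0.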

Row | Sequence | median seed-adjusted z-score
1 | CAGCUUCGGUGACAAGGAUTT against SNX30 | inactive: -0.157
2 | CGAGAAGCUCAUAACCGAATT against ZCCHC4 | inactive: -0.0614
3 | GUUCAUAUGUGACAUCUUUTT against ZFP36L1 | inactive: -0.933
4 | CAAGUACCCUGAUAGAGUUTT against ABHD4 | inactive: -0.054
5 | AGAAAAAUCUCAAGGAAAATT against HSPE1 | inactive: 0.0101
6 | UGAACAUGCUGAACGAGAATT against MYLK3 | inactive: 0.316
7 | GUACGGAAGCAGUAUUAAATT against RBM26 | inactive: -0.967
8 | ACCCAUCCUUCAACCCUGATT against PACSIN2 | inactive: 0.73
9 | GGAAGAAGGUUCUCAAACATT against RETSAT | active: -1.7
10 | GAAUCGUUGUCAGAGCCUUTT against LMNB1 | inactive: 0.0619
11 | GACCGCGUCUUGUACAGAATT against INPP5E | inactive: -0.0321
12 | GGUGGACUGUUUUUGCCUATT against B3GNT8 | inactive: 0.236
13 | GGACUCAGGUCUCAUGUGATT against KRTAP5-7 | inactive: -0.279
14 | CUAUCAUACACUAUCCAAATT against RTN4IP1 | inactive: -0.00582
15 | UCACCAUACCUACAAAAUATT against WFDC5 | inactive: 0
16 | AGAUUAUACUUACCGUGAUTT against RBMX | inactive: 0.0941
17 | CAAGUACCUGAAAAUGCAATT against RDH5 | inactive: 0.305
18 | GGAUGUUCAAGGCAGCAAATT against ASL | inactive: 0.0344
19 | ACAACAUCGGGAACGUGUATT against GPSM1 | inactive: -0.275
20 | CCAUCGCCCUGAACAUCAUTT against FBLN2 | inactive: 0.176
21 | ACCUCUCCCUGACCCUGUATT against PTPN6 | inactive: -0.515
22 | GCAUCAGGCAAAAUGCAAATT against GPR85 | inactive: 0.0452

Looked up above.
ACCUCUCCCUGACCCUGUATT against PTPN6 – median seed-adjusted z-score: inactive: -0.515
GACCGCGUCUUGUACAGAATT against INPP5E – median seed-adjusted z-score: inactive: -0.0321
GGACUCAGGUCUCAUGUGATT against KRTAP5-7 – median seed-adjusted z-score: inactive: -0.279

Carrying on:

Row | Sequence | median seed-adjusted z-score
23 | GCUGCUCCUUGAUACCCGATT against ETV7 | inactive: -0.00772
24 | GCCCAGUACUUGCUUGUUUTT against LRIG1 | inactive: 0.102
25 | CUAUCACUGUUGACCGCUATT against GPR12 | inactive: 0.437
26 | GCACCGCUACUAUAAAUCATT against PRKAG1 | inactive: 0.431
27 | CUCCAGUUGUUGACUCUGATT against SNX11 | inactive: 0.00451
28 | GCAAUUUCGUGCUCACCAATT against CPXM1 | inactive: 0.147
29 | UCAUAUAGGCAAAAUUUAATT against POU3F2 | inactive: -0.179
30 | CAAAGUGGAUUCAAAGAUUTT against PRKCH | inactive: 0.761
31 | GCUUCGCCUUUGUUAGAGATT against MAP3K4 | inactive: 0.72
32 | CACGAGGACUGGUCCAUUATT against DDX49 | inactive: 0.0816
33 | GGGAGAUGCUGGAUACGUATT against GPR137B | inactive: -0.0897
34 | GGAUGAGAGUCGCACCUAUTT against SYMPK | inactive: 0.946
35 | CAAAAUCGCACAACGAUGATT against GH2 | inactive: 0.374
36 | GGAGUGGUGUAGGAGUAAATT against GPR149 | inactive: -0.186
37 | GGACAUCGUCCAGUGCUUUTT against NAIP | inactive: -0.172
38 | GGUGUUGUCUGGUCAGUAATT against NLK | inactive: 0.256
39 | CAAGAUUACGAUUAUCUGATT against CDH3 | inactive: -0.138
40 | CCAUGUACGUCUACGUGGUTT against UTS2R | inactive: 0.0819
41 | GUGUAUACUCAAACUCAAATT against CPA4 | inactive: -0.182
42 | CAGUUAAACCUCUACAACATT against PLAG1 | inactive: 0.859
43 | CGUCGAUGCUGUGCAUUGATT against POLS | inactive: -0.334
44 | CCCAAUACAGCUUACCGUATT against RECQL4 | inactive: 0.475

Row | Sequence | median seed-adjusted z-score
45 | GGAGUCACAUACAAUGAUATT against TMPRSS11B | inactive: -0.545
46 | GAAUAUGAGAUGCUAACUATT against STK31 | inactive: 0.699
47 | CACGCUAGCUGUCCCUUUUTT against ARPC4 | inactive: -0.211
48 | AGCACUGCAUGUUCACCGATT against KLHL25 | inactive: -0.0146
49 | GAGUGAUCGCGAAUAUCGATT against NEB | inactive: 0.0485
50 | UCAGCAUCUUGGUCCUGUUTT against CALCA | inactive: 0.0802
51 | CGAUUGGACGAAUUCACUUTT against GRM2 | inactive: -0.664
52 | UGGACAUUGUAGCCGCUGATT against TBX2 | inactive: 0.42
53 | GCCUUUAACUGGAGCAAAATT against MMP2 | inactive: 0.0467
54 | CGGAGUUAAUAGACCAAGATT against MLSTD2 | inactive: -0.294
55 | GGGUUCGUGUCUCUGCUCATT against MGC16703 | inactive: 0.55
56 | GCUCUACGGUGACCAGUGUTT against GCGR | inactive: -0.224
57 | GUCAUUUCUUUACCCAAGATT against NUDT5 | inactive: 0.228
58 | AAAGUACCGUUCCAACAAATT against IL27RA | inactive: 0.887
59 | CGUUAUCACCUGCAACAGATT against STK32A | inactive: 0.052
60 | GGUAGCUUUUUGAAACCUATT against TIGD7 | inactive: -0.116
61 | CCAUGUUACCAUACAAUAATT against MXD1 | inactive: -0.763
62 | CAGUUGUCAUUAAAAGUUUTT against HS3ST3A1 | inactive: -0.133
63 | CACAAUUCAUGACCAUAUUTT against LRRC4 | inactive: 0.255
64 | CAGAGGCUUUGGACAAUUATT against HMX2 | inactive: -0.547
65 | GCCUCACAUUUUCUAAUGATT against RRM2 | active: -3.84
66 | CCUCAAGAUUCACCACUAUTT against OVGP1 | inactive: -0.642

Row | Sequence | median seed-adjusted z-score
67 | GCAUUGACUCUUCUUACUATT against PGA5 | inactive: -0.149
68 | GAAAAUGACGGUUAUAAGATT against PMM2 | inactive: 0.448
69 | GGAUUGGUCCGACCUCGUATT against RNMTL1 | inactive: 0.174
70 | GGAUAUGGGUAUACUAUUATT against MINPP1 | inactive: -0.0107
71 | GCCCACUGACCAUACCUCATT against NAT6 | inactive: -0.327
72 | GGCGGAGAGAUAUCACCUATT against TGM4 | inactive: -0.43
73 | GGAGGUCAAGUUAUCAGAATT against SDR42E1 | inactive: -0.109
74 | GCCUUUCGAAAGUACAUGATT against SCN11A | inactive: 0.196
75 | GCAACGAUCACCUAAAUUATT against NOP2 | active: 1.15
76 | GAAAAACGGAUAUUUACAATT against PITPNB | inactive: 0.57
77 | GCAUUAGUUUCUCAGUUAATT against MLH1 | inactive: -0.215
78 | GGAGCUAUGCUUAUCCCAATT against GABRA6 | inactive: 0.466
79 | GAACAACGGCUGCUAAAGATT against FER | inactive: 0
80 | GUAUUAGCCUCACUUAACATT against FXC1 | inactive: -0.00735
81 | CAGUAACUGAAGAUCUUUATT against LRRC19 | inactive: -0.062
82 | GCAGAAACGUGCAGAUAAATT against GNL3L | inactive: 0.568
83 | GCAACUUAUCACAACUGAATT against TLR6 | inactive: 0.505
84 | GGUUUGAUGUAGGCCCAAUTT against MTFMT | inactive: -0.0119
85 | GUGCCACCGGAGCUAGUAATT against KCNK4 | inactive: -0.446
86 | AGUGACUUGUGACAAUUUATT against LPAR5 | inactive: 0.0711
87 | GUAUUAACGAUUACAUCCATT against AGAP2 | inactive: 0.0934
88 | CACGAAAUAUUGGAAGUGATT against ST8SIA5 | inactive: -0.358

Row | Sequence | median seed-adjusted z-score
89 | CCAUCGCAGUAAUUACUCATT against RLF | inactive: 0
90 | CAACUGCCUUCACCAAAAUTT against UGT1A1 | inactive: -0.0283
91 | GAGCCGCUGGUGUAUCUUUTT against TLR4 | inactive: 0.113
92 | ACCCAGAAUUUAACGAGGATT against DOC2A | inactive: 0.299
93 | GAUCGCUACUUACAGGAUATT against CYP51A1 | inactive: -0.242
94 | GGAUAUGGUUGGUCAAAAUTT against CDH7 | inactive: 0
95 | CAAGAAGAUGUAAAGCGUATT against RANBP17 | inactive: -0.123
96 | GGAAGACAUUCUGACUCAATT against SRrp35 | inactive: -0.0574
97 | GGAUCGAGCUUUCUAUGGATT against PELO | inactive: 0.394
98 | GCUCCAUCAUCAAGACUUATT against TSSK2 | inactive: -0.064
99 | GGGACAUCCGAGAUCCUAATT against LAMB1 | active: 1.07
100 | GCACAGUCAUCAUUCCGAATT against CYP21A2 | inactive: -0.26
101 | GGCUAAUCGAGACUUGUUATT against ANXA7 | inactive: 0.671
102 | GAGAAGUGCGUGUAUGAGATT against LRP10 | inactive: 0.109
103 | GCACUUCAGCGAGUCGGAATT against RPS6KA4 | inactive: 0.193
104 | GGAGGAUAAAAUUUCCAUUTT against CST5 | inactive: 0.466
105 | GACAGUUCCGUGUUCCGUUTT against GPR25 | inactive: 0.377
106 | GCAGUGGAUAGGUACGUCATT against MC5R | inactive: 0.225
107 | ACAUCAAAAGGAAUGACUUTT against EIF5A | inactive: 0.00397

Two entries picked at random from those above, as already listed:
Row | Sequence | median seed-adjusted z-score
10 | GAAUCGUUGUCAGAGCCUUTT against LMNB1 | inactive: 0.0619
32 | CACGAGGACUGGUCCAUUATT against DDX49 | inactive: 0.0816
